Reference: PubChem BioAssay AID602196 (INSERM, 2012)
Test: 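Modifiers of cisplatin sensitivity in A549 cells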. Cell system: human A549 lung cancer cells. Reagents: siRNA pair against human genes. Timing: 48 h transfection before cisplatin; time from cisplatin to read-out not stated. Treatment: cisplatin at a dose killing half of control-siRNA cells; exact dose and duration not given. Measurement: 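Shift in cisplatin death relative to control siRNA, from -50 (all cells die) to +50 (no cells die); siRNAs harmful on their own scored 0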. Scale: two-siRNA summed score (-2 to +2): higher = both siRNAs protect from cisplatin killing; -2 means both sensitise; mean protection from cisplatin (shift in death): higher = protection from cisplatin killing. Hit rule: 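Each siRNA scores 0 if harmful alone by LDH or WST-1, otherwise +1 if it reduces and -1 if it increases cisplatin killing; a gene is active when both siRNAs agree (sum +2 or -2)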. Meaning of the calls: active = both siRNAs shift cisplatin killing the same way; inactive = no consistent shift, or siRNA harmful alone.
In all, the deposit lists about 23,000 reagents; this is a part drawn at random. 455 of all reagents (2%) count as active. 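Active includes both protection and sensitisation; some change values fall well beyond the stated -50 to +50 range.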 Further read-outs or replicates are left out here. Not stated in the record: the amount of reagent.

| target gene | two-siRNA summed score (-2 to +2) | mean protection from cisplatin (shift in death) (%) | Outcome |
| --- | --- | --- | --- |
| TMEM95 | 0 | 5.7 | inactive |
| LOC441344 | 0 | 7.8 | inactive |
| E2F7 | -1 | -9.5 | inactive |
| LOC389335 | 0 | 2.7 | inactive |
| LOC285101 | 1 | 15.1 | inactive |
| MSRA | 1 | 21.8 | inactive |
| NIT1 | 0 | 2.6 | inactive |
| TLCD4 | 0 | -2.9 | inactive |
| LOC400541 | 0 | -5.8 | inactive |
| MORC1 | 0 | -10.7 | inactive |
| FAM131B | 0 | 7.2 | inactive |
| NBR1 | 0 | -3.2 | inactive |
| HABP2 | 0 | -1.6 | inactive |
| TMEM215 | 0 | 0.8 | inactive |
| LOC284931 | 1 | 20.9 | inactive |
| RAB27B | 0 | 4.9 | inactive |
| FLJ46041 | 0 | 10.7 | inactive |
| LOC150371 | 0 | 10.7 | inactive |
| AOPEP | 0 | 13.7 | inactive |
| AKAP6 | -1 | -14.4 | inactive |
| EIF2B4 | -1 | 2.2 | inactive |
| LOC440856 | 1 | 16.7 | inactive |
| DDHD2 | 0 | 0.6 | inactive |
| OR2Y1 | 0 | 5.8 | inactive |
| LOC388491 | 1 | 10 | inactive |
| ADH7 | 1 | 3.2 | inactive |

Continued, starting with the last 5 of the part before.
| target gene | two-siRNA summed score (-2 to +2) | mean protection from cisplatin (shift in death) (%) | Outcome |
| --- | --- | --- | --- |
| LOC440856 | 1 | 16.7 | inactive |
| DDHD2 | 0 | 0.6 | inactive |
| OR2Y1 | 0 | 5.8 | inactive |
| LOC388491 | 1 | 10 | inactive |
| ADH7 | 1 | 3.2 | inactive |
| LHX4 | -1 | -9.5 | inactive |
| C1QTNF9 | 1 | 8.7 | inactive |
| LOC391144 | 0 | -7.4 | inactive |
| PTTG2 | 0 | -13.8 | inactive |
| CELA1 | 0 | 8.2 | inactive |
| TMEM151A | 0 | 4.4 | inactive |
| HOXC5 | -1 | 6.3 | inactive |
| PPFIBP1 | 0 | 13 | inactive |
| MEIS1 | 0 | 13.8 | inactive |
| CLSPN | 0 | 6.3 | inactive |
| PDLIM7 | 0 | -2 | inactive |
| CCP110 | 0 | 1.5 | inactive |
| DCLRE1A | -2 | -29 | active |
| LOC442596 | 0 | 6.8 | inactive |
| CNBD1 | 0 | 7 | inactive |
| SLC39A1 | 0 | 5.9 | inactive |
| LOC440337 (retired record) | 0 | 19.6 | inactive |
| ZNF750 | 0 | 3.7 | inactive |
| OR51G2 | 0 | 2.4 | inactive |
| CIMIP6 | 0 | 6.4 | inactive |
| HAND2 | 0 | -6.8 | inactive |
| SOX30 | 0 | 1.2 | inactive |
| POLD3 | 0 | 5.3 | inactive |
| LOC390218 | 0 | 11.8 | inactive |
| TIMM8A | 0 | -8.7 | inactive |
| SGMS2 | -1 | -2 | inactive |
| PDE4A | 0 | 12.8 | inactive |
| LOC144404 | 0 | -2.7 | inactive |
| CEP290 | 0 | 1.1 | inactive |
| LOC441251 | 0 | 4 | inactive |
| TNF | 0 | 14.7 | inactive |
